According to patent publication US20070036793A1, “Methods for use of an lkb1/strad7mo25 complex” (priority 2003, published 2007):
Numbering of substitutions follows the chain as printed. No constants are given. Whether binding was seen depends on the method and setting. Some binding calls cover weakened binding; strength is not graded here. Tags and fused reporters may be left off the sequences shown.

By UniProt entry, the sequences of proteins in these tests, tags left out. Residues count along the entry.
UniProt P08238, residues 2-724: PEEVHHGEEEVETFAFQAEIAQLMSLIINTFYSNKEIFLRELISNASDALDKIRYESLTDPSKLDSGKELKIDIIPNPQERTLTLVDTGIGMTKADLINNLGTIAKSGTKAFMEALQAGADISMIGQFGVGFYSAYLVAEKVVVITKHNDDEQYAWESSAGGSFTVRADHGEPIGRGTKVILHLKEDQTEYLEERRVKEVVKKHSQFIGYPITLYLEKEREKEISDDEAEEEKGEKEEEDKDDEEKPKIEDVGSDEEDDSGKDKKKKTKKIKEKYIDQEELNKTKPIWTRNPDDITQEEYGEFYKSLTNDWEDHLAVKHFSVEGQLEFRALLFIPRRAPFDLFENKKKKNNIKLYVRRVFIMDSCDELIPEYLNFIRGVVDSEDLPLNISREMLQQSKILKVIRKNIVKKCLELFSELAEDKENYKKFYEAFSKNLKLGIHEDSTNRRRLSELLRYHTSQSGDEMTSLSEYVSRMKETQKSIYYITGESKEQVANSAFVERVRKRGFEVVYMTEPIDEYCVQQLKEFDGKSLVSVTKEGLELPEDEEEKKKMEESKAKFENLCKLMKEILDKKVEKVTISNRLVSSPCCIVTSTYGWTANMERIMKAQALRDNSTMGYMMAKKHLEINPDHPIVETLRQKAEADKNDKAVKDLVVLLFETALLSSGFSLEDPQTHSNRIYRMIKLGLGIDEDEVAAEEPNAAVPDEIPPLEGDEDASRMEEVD

What was measured:
[1] = target: T1, N-terminal Flag epitope tagged wild type LKB1 (mouse) (UniProt Q9WTK7); test: anti-Flag affinity purification of Flag-LKB1 from HeLa cells; mass fingerprint and immunoblot
T1 sequence: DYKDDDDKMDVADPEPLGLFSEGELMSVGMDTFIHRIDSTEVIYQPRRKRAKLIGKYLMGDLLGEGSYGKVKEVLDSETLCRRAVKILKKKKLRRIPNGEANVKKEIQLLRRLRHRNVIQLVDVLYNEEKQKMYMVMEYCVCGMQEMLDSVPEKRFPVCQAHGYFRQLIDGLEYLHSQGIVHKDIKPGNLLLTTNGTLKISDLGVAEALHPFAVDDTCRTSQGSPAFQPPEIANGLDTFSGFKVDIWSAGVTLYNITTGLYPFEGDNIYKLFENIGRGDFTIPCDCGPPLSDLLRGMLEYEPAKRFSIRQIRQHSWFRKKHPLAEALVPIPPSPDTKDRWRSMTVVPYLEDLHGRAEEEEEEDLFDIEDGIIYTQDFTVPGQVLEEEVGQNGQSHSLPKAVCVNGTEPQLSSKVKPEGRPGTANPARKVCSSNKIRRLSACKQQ

[2] = target: T2, N-terminal Flag epitope tagged kinase dead LKB1 (D194A) (mouse) (UniProt Q9WTK7); test: as above
T2 sequence: T1 sequence with D202A

binding [1]: binds | binding [2]: binds
Substance: Hsp90 chaperone protein, endogenous in HeLa cells (from UniProt P08238 2-724)
